Assay results published in article PMC12322227.
Results are given in words; binding and its absence hold for the method and conditions named. In cells and extracts the contact can be indirect. Some binding calls cover weakened binding; strength is not graded here.

By UniProt entry, the sequences of proteins in these tests, tags left out.
UniProt Q86WV6: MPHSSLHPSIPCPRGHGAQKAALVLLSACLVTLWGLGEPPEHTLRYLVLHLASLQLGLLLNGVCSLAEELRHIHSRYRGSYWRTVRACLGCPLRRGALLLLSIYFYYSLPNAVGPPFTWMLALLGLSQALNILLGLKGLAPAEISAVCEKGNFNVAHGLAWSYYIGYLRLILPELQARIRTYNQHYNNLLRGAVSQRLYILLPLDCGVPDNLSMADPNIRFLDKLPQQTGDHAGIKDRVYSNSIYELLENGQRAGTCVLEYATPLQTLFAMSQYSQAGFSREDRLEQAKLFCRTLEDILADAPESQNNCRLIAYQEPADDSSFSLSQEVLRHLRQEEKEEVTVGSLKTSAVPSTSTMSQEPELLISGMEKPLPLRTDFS
UniProt P19474: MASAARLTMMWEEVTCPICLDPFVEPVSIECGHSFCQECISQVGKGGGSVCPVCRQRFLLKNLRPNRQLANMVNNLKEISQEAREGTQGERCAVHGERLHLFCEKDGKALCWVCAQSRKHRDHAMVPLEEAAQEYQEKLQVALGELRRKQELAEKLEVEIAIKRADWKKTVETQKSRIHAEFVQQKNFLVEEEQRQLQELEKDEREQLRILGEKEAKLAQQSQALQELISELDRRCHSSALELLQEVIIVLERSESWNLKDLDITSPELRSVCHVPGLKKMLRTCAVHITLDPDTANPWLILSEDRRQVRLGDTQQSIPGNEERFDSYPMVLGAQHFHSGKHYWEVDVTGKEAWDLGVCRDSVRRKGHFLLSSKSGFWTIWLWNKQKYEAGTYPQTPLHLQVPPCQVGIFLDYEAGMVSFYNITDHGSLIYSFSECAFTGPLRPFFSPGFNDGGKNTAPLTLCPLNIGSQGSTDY

What was measured:
[1] = target: Stimulator of interferon genes (STING), human, endogenous (human (endogenous in PBMCs and HEK293)) (UniProt Q86WV6); experiment: co-IP; HEK293 lysate; anti-STING antibody or normal rabbit IgG on Dynabeads Protein G, 4 °C, 2 h; blot with anti-TRIM21 and anti-STING
[2] = target: Stimulator of interferon genes (STING), human, endogenous (human (endogenous in PBMCs and HEK293)) (UniProt Q86WV6); experiment: proximity ligation; endogenous proteins in human PBMCs and mouse splenocytes; antibodies against TRIM21 and STING; NaveniFlex Cell MR Atto647N; confocal microscopy

Q: With “Tripartite motif-containing 21 (TRIM21), human, endogenous (from UniProt P19474 1-475)” as the substance, how does the binding [1] read?
A: The binding was “binds”.

Q: And the binding [2]?
A: The binding was “binds”.
